{"source": "PubChem BioAssay AID686937 | Drosophila RNAi Screening Center | 2013", "assay": "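Genes in the fly needed for secretion of protein constitutively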 (primary screen)", "cell system": "Drosophila S2 cells expressing secreted horseradish peroxidase", "reagents": "long dsRNA against Drosophila genes", "duration": "about 5.5 days (5 days dsRNA, then 12 h reporter induction)", "challenge": "reporter expression induced after 5 days of dsRNA, read 12 h later; inducer not stated", "read-out": "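After 5 days of dsRNA and 12 h of reporter induction, medium peroxidase read by chemiluminescence and scored as per-plate z-score; higher values mean more reporter released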", "reading the numbers": "z-score: higher = more reporter secreted into medium", "note": "The deposit covers about 23,000 reagents; below is a random part of those with a known target gene and a result. 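Reduced-secretion tags in replicate 1 do not always agree with the z-scores; no criterion for assigning the tags was given.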 Names joined by + are all predicted targets of the reagent. Not all columns of the deposit are shown. Not given: the amount of reagent."}
{"Gene":"CG12362","DRSC id":"DRSC09884","z-score, replicate 1":0.53}
{"Gene":"CG31997","DRSC id":"DRSC17105","z-score, replicate 1":0.59}
{"Gene":"ssp5 (short spindle 5)","DRSC id":"DRSC14955","z-score, replicate 1":0.03}
{"Gene":"CG46385","DRSC id":"DRSC06425","z-score, replicate 1":-2.34,"phenotype, replicate 1":"reduced secretion"}
{"Gene":"CG46385","DRSC id":"DRSC06557","z-score, replicate 1":0.31}
{"Gene":"rdgB (retinal degeneration B)","DRSC id":"DRSC20365","z-score, replicate 1":0.37}
{"Gene":"Cda4 (Chitin deacetylase-like 4)","DRSC id":"DRSC20623","z-score, replicate 1":0.76}
{"Gene":"Cda4 (Chitin deacetylase-like 4)","DRSC id":"DRSC20641","z-score, replicate 1":0.27}
{"Gene":"Cda4 (Chitin deacetylase-like 4)","DRSC id":"DRSC20642","z-score, replicate 1":0.65}
{"Gene":"WRNexo (WRN exonuclease)","DRSC id":"DRSC16278","z-score, replicate 1":0.09}
{"Gene":"ATPsynCF6L (ATP synthase, coupling factor 6-like)","DRSC id":"DRSC08232","z-score, replicate 1":0.27}
{"Gene":"Kpc1 (Kip1 ubiquitination-promoting complex subunit 1)","DRSC id":"DRSC16107","z-score, replicate 1":0.29}
{"Gene":"GAA1 (Glycosylphosphatidylinositol anchor attachment 1)","DRSC id":"DRSC18267","z-score, replicate 1":0.51}
{"Gene":"Cyp12d1-d + Cyp12d1-p","DRSC id":"DRSC21507","z-score, replicate 1":1.38}
{"Gene":"Tsp96F (Tetraspanin 96F)","DRSC id":"DRSC14147","z-score, replicate 1":0.46}
{"Gene":"pnt (pointed)","DRSC id":"DRSC17028","z-score, replicate 1":-2.58,"phenotype, replicate 1":"reduced secretion"}
{"Gene":"CG14671","DRSC id":"DRSC12257","z-score, replicate 1":0.48}
{"Gene":"Pkc53E (Protein C kinase 53E)","DRSC id":"DRSC05636","z-score, replicate 1":0.21}
{"Gene":"Pkc53E (Protein C kinase 53E)","DRSC id":"DRSC07510","z-score, replicate 1":0.33}
{"Gene":"PIG-K (Phosphatidylinositol glycan anchor biosynthesis class K)","DRSC id":"DRSC18496","z-score, replicate 1":0.49}
{"Gene":"CG18301","DRSC id":"DRSC02662","z-score, replicate 1":-0.02}
{"Gene":"CG11693","DRSC id":"DRSC14353","z-score, replicate 1":0.07}
{"Gene":"Top1 (Topoisomerase 1)","DRSC id":"DRSC20295","z-score, replicate 1":0.19}
{"Gene":"pck (pickel)","DRSC id":"DRSC18565","z-score, replicate 1":0.17}
{"Gene":"Smg6","DRSC id":"DRSC16029","z-score, replicate 1":0.58}
{"Gene":"Tsp42Eq (Tetraspanin 42Eq)","DRSC id":"DRSC06180","z-score, replicate 1":0.26}
{"Gene":"CG7646","DRSC id":"DRSC11232","z-score, replicate 1":0.04}
{"Gene":"GstE6 (Glutathione S transferase E6)","DRSC id":"DRSC06676","z-score, replicate 1":0.3}
{"Gene":"CG6567 + CG4565","DRSC id":"DRSC15599","z-score, replicate 1":0.16}
{"Gene":"CG7789","DRSC id":"DRSC16312","z-score, replicate 1":0.28}
{"Gene":"CG15343","DRSC id":"DRSC18028","z-score, replicate 1":0.37}
{"Gene":"Bcat (Branched chain amino acid transaminase)","DRSC id":"DRSC19756","z-score, replicate 1":0.4}
{"Gene":"PolQ (DNA polymerase theta)","DRSC id":"DRSC17006","z-score, replicate 1":-0.45}
{"Gene":"Mp (Multiplexin)","DRSC id":"DRSC10193","z-score, replicate 1":0.11}
{"Gene":"Mp (Multiplexin)","DRSC id":"DRSC11029","z-score, replicate 1":0.33}
{"Gene":"Mp (Multiplexin)","DRSC id":"DRSC11030","z-score, replicate 1":0.11}
{"Gene":"mam (mastermind)","DRSC id":"DRSC05468","z-score, replicate 1":-4.2,"phenotype, replicate 1":"reduced secretion"}
{"Gene":"mam (mastermind)","DRSC id":"DRSC07648","z-score, replicate 1":-4.11,"phenotype, replicate 1":"reduced secretion"}
{"Gene":"Polr1A (RNA polymerase I subunit A)","DRSC id":"DRSC07535","z-score, replicate 1":0.32}
{"Gene":"CG43057","DRSC id":"DRSC01015","z-score, replicate 1":0.56}
